Laboratory results reported in patent publication US20250236878A1 (priority 2019, published 2025).
Not every detail of the peptide structures is certain; ends, links or a residue may be inferred. Peptide text beside a SMILES is read from it.

Test system: Pseudomonas syringae pv. actinidiae (PSA-V)
Format: in vivo
Conditions: at 6, 16 and 23 DAI; P<0.1

In the case of `CC[C@H](C)[C@H](NC(=O)[C@H](CCC(N)=O)NC(=O)[C@H](CC(C)C)NC(=O)CNC(=O)[C@H](C)NC(=O)[C@H](C)NC(=O)[C@H](CC(=O)O)NC(=O)[C@H](CC(=O)O)NC(=O)[C@H](CCCCN)NC(=O)[C@H](C)NC(=O)[C@H](CO)NC(=O)[C@H](CC(N)=O)NC(=O)[C@@H](NC(=O)[C@H](CCCCN)NC(=O)[C@H](CC(C)C)NC(=O)CNC(=O)[C@H](CO)NC(=O)[C@H](CO)NC(=O)[C@H](CC(C)C)NC(=O)[C@H](CCCNC(=N)N)NC(=O)[C@@H](N)[C@@H](C)O)[C@@H](C)CC)C(=O)N[C@@H](C)C(=O)O` [Flg22-PSA] (H-TRLSSGLKINSAKDDAAGLQIA-OH), the “PSA-V leaf spot symptoms in comparison to the untreated control” value is reported as “significantly reduced”.
